Assay results taken from paper PMC6008445.
No constants are given. Whether binding was seen depends on the method and setting. In cells and extracts the contact can be indirect. Some entries that bind do so weakly or less than the wild type.

Amino acid sequences for entries named in this document (tags omitted). A change or cut given only in a name is not applied to a line headed by its entry. Chains listed by the source or under a name are the forms on record and can include a tag or linker. Residues count along the entry.
UniProt P35968, residues 20-1356: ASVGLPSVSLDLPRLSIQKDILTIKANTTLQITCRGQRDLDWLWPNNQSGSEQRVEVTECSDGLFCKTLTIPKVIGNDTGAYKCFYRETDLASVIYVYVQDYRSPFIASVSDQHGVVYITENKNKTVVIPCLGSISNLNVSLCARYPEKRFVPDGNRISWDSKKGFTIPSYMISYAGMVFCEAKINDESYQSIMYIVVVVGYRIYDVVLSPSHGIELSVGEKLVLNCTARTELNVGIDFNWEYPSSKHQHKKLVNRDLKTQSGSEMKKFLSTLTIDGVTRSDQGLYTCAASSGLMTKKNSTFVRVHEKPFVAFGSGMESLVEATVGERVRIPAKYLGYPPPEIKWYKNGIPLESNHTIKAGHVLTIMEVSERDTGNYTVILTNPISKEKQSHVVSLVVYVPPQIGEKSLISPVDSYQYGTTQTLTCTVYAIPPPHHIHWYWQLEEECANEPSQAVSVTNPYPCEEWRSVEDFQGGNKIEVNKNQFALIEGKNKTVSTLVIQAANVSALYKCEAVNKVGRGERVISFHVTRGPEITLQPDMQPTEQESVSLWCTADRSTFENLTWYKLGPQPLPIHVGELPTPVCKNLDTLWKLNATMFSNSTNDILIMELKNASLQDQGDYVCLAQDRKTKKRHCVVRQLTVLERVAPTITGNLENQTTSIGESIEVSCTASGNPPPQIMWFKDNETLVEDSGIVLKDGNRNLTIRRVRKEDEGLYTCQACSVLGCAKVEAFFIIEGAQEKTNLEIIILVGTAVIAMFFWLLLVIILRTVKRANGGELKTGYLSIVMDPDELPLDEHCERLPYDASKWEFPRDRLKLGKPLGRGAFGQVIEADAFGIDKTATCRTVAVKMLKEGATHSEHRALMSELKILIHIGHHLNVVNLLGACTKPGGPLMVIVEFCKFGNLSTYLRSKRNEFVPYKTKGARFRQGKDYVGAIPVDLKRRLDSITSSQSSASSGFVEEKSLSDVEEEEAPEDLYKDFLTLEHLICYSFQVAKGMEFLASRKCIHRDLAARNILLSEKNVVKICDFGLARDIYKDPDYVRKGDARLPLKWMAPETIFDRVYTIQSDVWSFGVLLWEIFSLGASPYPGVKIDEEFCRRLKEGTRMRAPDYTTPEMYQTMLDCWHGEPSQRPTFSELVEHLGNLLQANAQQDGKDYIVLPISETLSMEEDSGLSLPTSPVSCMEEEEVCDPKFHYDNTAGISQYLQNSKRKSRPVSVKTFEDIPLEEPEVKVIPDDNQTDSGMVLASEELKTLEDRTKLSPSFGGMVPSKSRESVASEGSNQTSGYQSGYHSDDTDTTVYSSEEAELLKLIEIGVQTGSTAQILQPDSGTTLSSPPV
sVEGFR1-i13 (P17948-2, form named): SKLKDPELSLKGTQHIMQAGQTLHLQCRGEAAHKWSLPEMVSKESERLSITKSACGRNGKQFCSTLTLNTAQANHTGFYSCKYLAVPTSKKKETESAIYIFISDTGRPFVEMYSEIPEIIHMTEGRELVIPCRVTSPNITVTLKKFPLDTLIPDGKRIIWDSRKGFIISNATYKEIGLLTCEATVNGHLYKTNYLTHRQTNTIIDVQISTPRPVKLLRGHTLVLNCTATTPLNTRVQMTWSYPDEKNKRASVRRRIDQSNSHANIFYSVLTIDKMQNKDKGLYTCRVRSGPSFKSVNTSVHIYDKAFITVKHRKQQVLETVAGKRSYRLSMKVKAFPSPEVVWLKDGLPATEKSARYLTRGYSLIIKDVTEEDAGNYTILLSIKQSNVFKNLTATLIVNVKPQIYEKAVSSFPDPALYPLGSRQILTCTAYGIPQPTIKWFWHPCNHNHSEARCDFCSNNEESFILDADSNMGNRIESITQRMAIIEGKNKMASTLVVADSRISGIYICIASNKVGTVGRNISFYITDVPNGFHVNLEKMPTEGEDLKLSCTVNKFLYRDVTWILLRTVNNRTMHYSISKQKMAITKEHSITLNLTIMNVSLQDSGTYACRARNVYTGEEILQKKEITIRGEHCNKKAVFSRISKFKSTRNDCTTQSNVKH

Legend:
[1] = target: VEGFR2 (human (endogenous in MGH7 and H2170)) (UniProt P35968); assay: co-IP; H2170 cells, RIPA lysate, VEGFR2 precipitated with anti-VEGFR2 (55B11) and protein A magnetic beads overnight at 4 °C; western blot of the precipitates; cells untreated or treated with bevacizumab (10 µg/ml, 72 h) or recombinant sVEGFR1
[2] = target: VEGFR2 (human (endogenous in MGH7 and H2170)) (UniProt P35968); assay: proximity ligation; Duolink In Situ kit on MGH7 cells treated with SU5416 (10 µM, 24 h); confocal microscopy; complexes seen at the plasma membrane and in the cytoplasm
[3] = target: VEGFR2 (human (endogenous in MGH7 and H2170)) (UniProt P35968); assay: co-IP; MGH7 cells, RIPA lysate (1 mg protein), VEGFR2 precipitated with anti-VEGFR2 (55B11) and protein A magnetic beads overnight at 4 °C, irrelevant rabbit IgG as control; western blot of the precipitates; cells untreated or treated with bevacizumab (10 µg/ml, 72 h), SU5416 (10 µM, 24 h), recombinant sVEGFR1 (1 ng/ml, 24 h), or sVEGFR1-i13 siRNA

Measured: binding

sVEGFR1-i13 (from UniProt P17948-2 27-687)
binds: all assays above
